The record followed here is article PMC5996148.

Where “and” joins values, the source holds several entries; their conditions need not be identical. Equal entries are not always repeated. The list shows a part of the results. For some assays here: Construct or isoform of the protein are uncertain.

What all share (assay): protein microarray (ProtoArray v5.0), streptavidin-Alexa Fluor 647
Common to all, as to settings: 3'-biotin; 20 mM Tris (pH 7.5), 5 mM MgCl2, 100 mM KCl, 0.1% Tween-20, A/T-rich and random oligonucleotide blockers; temperature not stated; high values mean tight binding

Experiment [1] relates to ABHD14B (human).
In experiment [2] the test system is ABHD4 (human).
Experiment [3] has as its system ABHD5 (human).
Experiment [4] has as its system ABHD6 (human).
Experiment [5] relates to ACAD9 (human).
Experiment [6] relates to ACADS (human).
In experiment [7] the test system is ACAN (human).
Experiment [8] concerns the target T1, ACBD6 (UniProt Q9BR61).
T1 sequence: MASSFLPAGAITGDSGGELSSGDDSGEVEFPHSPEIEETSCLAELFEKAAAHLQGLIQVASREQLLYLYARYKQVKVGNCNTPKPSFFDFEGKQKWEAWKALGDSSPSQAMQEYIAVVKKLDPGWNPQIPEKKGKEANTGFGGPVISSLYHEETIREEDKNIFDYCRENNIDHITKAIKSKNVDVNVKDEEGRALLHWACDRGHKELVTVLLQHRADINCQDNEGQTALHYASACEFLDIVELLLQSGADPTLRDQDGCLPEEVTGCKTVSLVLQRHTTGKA

In experiment [9] the test system is ACBD7 (human).
For experiment [10], the system named is ACCN2 (human).
Experiment [11] relates to ACMSD (human).
Experiment [12] relates to ACP1 (human).
Experiment [13] concerns ACPP (human).
Experiment [14] relates to ACRV1 (human).
Experiment [15] concerns ACSL5 (human).
Experiment [16] relates to ACTA2 (human).
Experiment [17] relates to ACTC1 (human).
Experiment [18] has as its system ACTG2 (human).
The subject of experiment [19] is ACTL7B (human).
Experiment [20] relates to ACTN2 (human).

With “GGGAGGCTGAGGCAGG [G4-1 biotinylated (PQS2)]”, the binding signal in experiment [1] is -0.287 z-score; in [2], -0.321 z-score; in [3], -0.296 z-score; in [4] it was -0.313 z-score; in experiment [5], -0.297 z-score; in experiment [6] it was -0.258 z-score. Further, the binding signal in experiment [7] is -0.312 z-score; in [8], -0.341 z-score; in experiment [9], -0.319 z-score; in experiment [10], -0.309 z-score; in experiment [11] it was -0.308 z-score; in experiment [12], -0.331 z-score and -0.326 z-score. Also, the binding signal was -0.325 z-score in experiment [13]; -0.31 z-score in experiment [14]; -0.321 z-score in experiment [15]; -0.321 z-score in experiment [16]; -0.289 z-score in experiment [17]; -0.296 z-score in experiment [18]. Moreover, the binding signal in [19] was -0.329 z-score; in experiment [20] it was -0.348 z-score.
